Results published in article PMC12216206.
Results are given in words; binding and its absence hold for the method and conditions named. Binding seen in cells or lysates may run through a third protein. These calls come from enrichment with a bait or labelling near it, and not all partners need be listed. Sequences can lack the tags named with a protein.

Target: T1, VERNALIZATION1 (VRN1) with C-terminal Strep-II/FLAG TAP tag (Arabidopsis thaliana) (UniProt Q8L3W1)
T1 sequence: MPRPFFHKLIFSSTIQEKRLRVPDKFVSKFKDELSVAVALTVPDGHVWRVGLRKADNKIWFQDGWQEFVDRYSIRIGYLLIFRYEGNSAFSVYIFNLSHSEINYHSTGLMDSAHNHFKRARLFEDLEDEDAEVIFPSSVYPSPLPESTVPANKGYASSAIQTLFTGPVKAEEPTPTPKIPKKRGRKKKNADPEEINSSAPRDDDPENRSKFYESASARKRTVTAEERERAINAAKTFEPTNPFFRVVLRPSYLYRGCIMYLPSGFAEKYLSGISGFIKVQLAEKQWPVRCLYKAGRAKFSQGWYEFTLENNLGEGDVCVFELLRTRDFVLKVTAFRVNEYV
Assay: affinity purification with mass spectrometry; anti-FLAG IP (Sigma F1804 on M-270 epoxy Dynabeads, overnight, 4 °C) of VRN1-FLAG from purified nuclei of seedlings crosslinked with 1% formaldehyde, treated with Benzonase and sonicated with 0.5% SDS; lines #24 and #37; WT FRI without the transgene as control; seedlings grown at warm temperature, also after three weeks of cold

FVE
binding: binds
